The assay has as its target T1, NF2, endogenous in mouse hippocampus (mouse (endogenous in hippocampus)) (UniProt P46662).
T1 sequence: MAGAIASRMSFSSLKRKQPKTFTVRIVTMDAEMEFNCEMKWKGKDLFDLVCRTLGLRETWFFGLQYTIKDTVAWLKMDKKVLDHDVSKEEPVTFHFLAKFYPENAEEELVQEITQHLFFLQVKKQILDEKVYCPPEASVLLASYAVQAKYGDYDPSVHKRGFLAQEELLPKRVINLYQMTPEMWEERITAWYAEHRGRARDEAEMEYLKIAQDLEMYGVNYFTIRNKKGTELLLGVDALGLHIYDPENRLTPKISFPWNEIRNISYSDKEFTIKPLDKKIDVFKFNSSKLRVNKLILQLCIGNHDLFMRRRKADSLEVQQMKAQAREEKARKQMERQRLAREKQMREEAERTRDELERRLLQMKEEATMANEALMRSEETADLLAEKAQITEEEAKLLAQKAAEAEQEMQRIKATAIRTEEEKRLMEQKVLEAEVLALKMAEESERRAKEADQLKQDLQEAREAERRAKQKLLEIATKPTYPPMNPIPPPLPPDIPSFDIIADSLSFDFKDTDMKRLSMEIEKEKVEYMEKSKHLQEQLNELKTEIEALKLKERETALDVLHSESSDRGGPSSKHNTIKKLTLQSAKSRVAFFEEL
In words: co-IP; hippocampal lysates in RIPA buffer (150 ug total protein) of WT, PLPP/CIN^Tg and PLPP/CIN^-/- mice, with saline or 2 h after kainic acid (25 mg/kg i.p.); NF2 or PLPP/CIN antibody and protein G sepharose, 4 °C overnight; western blot.

Results are given in words; binding and its absence hold for the method and conditions named. Binding seen in cells or lysates may run through a third protein. Some binding calls cover weakened binding; strength is not graded here.

B1: PLPP/CIN, in mouse hippocampus (enzyme, UniProt P60487 1-292)
chain: MARCERLRGAALRDVLGQAQGVLFDCDGVLWNGERIVPGAPELLQRLARAGKNTLFVSNNSRRARPELALRFARLGFAGLRAEQLFSSALCAARLLRQRLSGPPDASGAVFVLGGEGLRAELRAAGLRLAGDPGEDPRVRAVLVGYDEQFSFSRLTEACAHLRDPDCLLVATDRDPWHPLSDGSRTPGTGSLAAAVETASGRQALVVGKPSPYMFQCITEDFSVDPARTLMVGDRLETDILFGHRCGMTTVLTLTGVSSLEEAQAYLTAGQRDLVPHYYVESIADLMEGLED
As to B1, the binding result was “binds”.

Source of the values: publication PMC7791067, “PLPP/CIN-mediated NF2-serine 10 dephosphorylation regulates F-actin stability and Mdm2 degradation in an activity-dependent manner” (Cell Death & Disease, 2021).
